Drawing on paper PMC7484554, this text covers binding for three molecules.

By UniProt entry, the sequences of proteins in these tests, tags left out. Where a name states a change or a piece, a line headed by the entry shows the natural chain unless it says otherwise. Chains listed by the source or under a name are the forms on record and can include a tag or linker.
UniProt O35973: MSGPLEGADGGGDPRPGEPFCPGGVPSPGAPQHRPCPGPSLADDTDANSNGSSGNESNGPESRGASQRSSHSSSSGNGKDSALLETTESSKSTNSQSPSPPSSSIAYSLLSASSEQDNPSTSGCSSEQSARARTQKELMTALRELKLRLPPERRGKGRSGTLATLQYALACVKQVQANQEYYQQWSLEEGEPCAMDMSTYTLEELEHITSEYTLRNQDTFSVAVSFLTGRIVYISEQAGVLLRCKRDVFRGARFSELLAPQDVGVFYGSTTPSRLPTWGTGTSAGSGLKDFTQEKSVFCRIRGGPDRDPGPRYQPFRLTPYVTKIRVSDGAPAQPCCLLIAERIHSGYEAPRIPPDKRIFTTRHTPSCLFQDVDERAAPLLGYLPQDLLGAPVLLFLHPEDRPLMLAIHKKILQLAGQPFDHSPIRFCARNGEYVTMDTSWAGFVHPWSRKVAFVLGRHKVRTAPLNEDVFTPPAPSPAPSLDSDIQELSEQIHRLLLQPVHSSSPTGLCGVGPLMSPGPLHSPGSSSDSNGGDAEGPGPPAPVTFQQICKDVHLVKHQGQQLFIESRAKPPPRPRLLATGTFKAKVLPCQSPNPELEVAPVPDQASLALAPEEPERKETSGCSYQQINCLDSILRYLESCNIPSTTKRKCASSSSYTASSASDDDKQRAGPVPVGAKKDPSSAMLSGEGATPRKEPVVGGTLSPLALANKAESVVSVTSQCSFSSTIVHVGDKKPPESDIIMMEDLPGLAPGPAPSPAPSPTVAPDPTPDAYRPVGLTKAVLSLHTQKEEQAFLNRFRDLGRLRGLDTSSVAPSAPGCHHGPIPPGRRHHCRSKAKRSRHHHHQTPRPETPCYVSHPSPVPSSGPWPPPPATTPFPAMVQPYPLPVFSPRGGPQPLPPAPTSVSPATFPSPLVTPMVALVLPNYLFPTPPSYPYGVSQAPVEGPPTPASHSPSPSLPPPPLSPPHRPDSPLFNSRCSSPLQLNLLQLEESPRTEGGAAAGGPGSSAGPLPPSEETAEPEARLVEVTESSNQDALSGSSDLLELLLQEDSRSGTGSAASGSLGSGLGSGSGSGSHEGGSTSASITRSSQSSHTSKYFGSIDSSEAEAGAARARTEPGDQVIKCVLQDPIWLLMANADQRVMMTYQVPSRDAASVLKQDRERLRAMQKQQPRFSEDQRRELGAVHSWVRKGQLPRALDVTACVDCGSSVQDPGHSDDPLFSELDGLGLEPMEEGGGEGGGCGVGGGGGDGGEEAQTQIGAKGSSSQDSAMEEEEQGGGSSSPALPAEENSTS
HA-tagged PER1, 178–324 aa deletion (O35973, form named): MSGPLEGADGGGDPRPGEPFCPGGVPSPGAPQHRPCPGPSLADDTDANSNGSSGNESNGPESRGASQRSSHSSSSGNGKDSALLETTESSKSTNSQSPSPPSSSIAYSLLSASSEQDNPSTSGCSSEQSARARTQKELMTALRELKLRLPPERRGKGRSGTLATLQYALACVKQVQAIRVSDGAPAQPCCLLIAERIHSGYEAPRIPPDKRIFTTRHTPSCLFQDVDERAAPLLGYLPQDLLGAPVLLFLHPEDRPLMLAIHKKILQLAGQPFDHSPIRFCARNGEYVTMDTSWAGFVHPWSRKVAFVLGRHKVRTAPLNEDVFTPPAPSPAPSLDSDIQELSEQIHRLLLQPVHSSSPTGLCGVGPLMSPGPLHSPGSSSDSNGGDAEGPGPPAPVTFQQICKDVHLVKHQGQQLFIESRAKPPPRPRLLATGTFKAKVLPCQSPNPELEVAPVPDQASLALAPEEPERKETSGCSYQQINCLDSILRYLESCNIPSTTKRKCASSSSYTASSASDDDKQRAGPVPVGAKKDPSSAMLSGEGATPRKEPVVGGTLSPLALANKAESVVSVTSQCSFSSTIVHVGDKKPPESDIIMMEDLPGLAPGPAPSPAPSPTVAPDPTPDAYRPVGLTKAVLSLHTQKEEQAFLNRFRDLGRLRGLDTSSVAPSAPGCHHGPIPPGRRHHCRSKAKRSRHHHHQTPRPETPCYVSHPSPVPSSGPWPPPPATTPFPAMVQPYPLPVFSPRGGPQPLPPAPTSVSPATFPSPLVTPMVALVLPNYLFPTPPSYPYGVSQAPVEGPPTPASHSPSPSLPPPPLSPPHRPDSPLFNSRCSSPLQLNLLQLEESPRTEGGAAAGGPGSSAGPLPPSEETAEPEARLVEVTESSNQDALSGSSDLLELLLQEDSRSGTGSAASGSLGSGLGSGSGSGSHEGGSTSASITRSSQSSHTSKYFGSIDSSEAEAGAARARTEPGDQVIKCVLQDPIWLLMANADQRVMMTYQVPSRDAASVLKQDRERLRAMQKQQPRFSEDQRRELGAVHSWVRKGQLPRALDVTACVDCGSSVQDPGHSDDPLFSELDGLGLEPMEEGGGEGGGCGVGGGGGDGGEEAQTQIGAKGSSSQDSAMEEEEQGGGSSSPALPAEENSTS

No constants are given. Whether binding was seen depends on the method and setting. In cells and extracts the contact can be indirect. Some results given as binding are weak or reduced against the parent protein; the word gives no strength. For some of these results: Tags and fused reporters may be left off the sequences shown.

Test [1] addresses T1, GPX1 (mouse (endogenous in liver and small intestine)) (UniProt P11352).
T1 sequence (chain, selenocysteine (46 aa)): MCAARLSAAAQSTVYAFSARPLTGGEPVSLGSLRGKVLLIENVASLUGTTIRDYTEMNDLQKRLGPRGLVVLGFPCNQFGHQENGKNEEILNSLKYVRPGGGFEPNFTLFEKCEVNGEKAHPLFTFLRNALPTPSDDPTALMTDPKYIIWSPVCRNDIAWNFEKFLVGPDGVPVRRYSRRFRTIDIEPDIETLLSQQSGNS
Kind of test: co-IP; cytoplasmic extracts of WT mouse liver or small intestine at ZT1 or ZT13; lysis in 10 mM Tris-HCl pH 8.0, 420 mM NaCl, 1 mM EDTA, 0.5% NP-40; antibody overnight at 4 °C, Protein G-Sepharose 4B; western blot. Background: A western blot detects proteins with antibodies after separation by electrophoresis.

In test [2] the target is T2, HA-tagged fragment of GPX1, amino acids 130–201 (mouse) (UniProt P11352).
T2 sequence: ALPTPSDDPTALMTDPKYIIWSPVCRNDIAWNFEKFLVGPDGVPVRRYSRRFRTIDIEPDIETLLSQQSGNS
In words: co-IP; lysates of NIH-3T3 cells coexpressing HA-tagged fragments of GPX1 and a vector expressing PER1, immunoprecipitated with an anti-HA antibody; western blot.

The target in the next test is HA-tagged PER1 (mouse) (UniProt O35973). Kind of test: co-IP; lysates of NIH-3T3 cells expressing HA-tagged PER1 or its mutant forms, immunoprecipitated with an anti-HA antibody; western blot.
In test [3] the target is HA-tagged PER1, 178–324 aa deletion (mouse) (UniProt O35973). The test is described as above.

In the case of PER1 (from UniProt O35973 1-1291), the binding result in test [1] was “binds”. Turning to “PER1 (from a vector expressing PER1) (from UniProt O35973 1-1291)”, in test [2], the binding entry is “binds”.

B1: GPX1 (enzyme, UniProt P11352 1-201)
chain: MCAARLSAAAQSTVYAFSARPLTGGEPVSLGSLRGKVLLIENVASLUGTTIRDYTEMNDLQKRLGPRGLVVLGFPCNQFGHQENGKNEEILNSLKYVRPGGGFEPNFTLFEKCEVNGEKAHPLFTFLRNALPTPSDDPTALMTDPKYIIWSPVCRNDIAWNFEKFLVGPDGVPVRRYSRRFRTIDIEPDIETLLSQQSGNS
modifications: selenocysteine (46 aa)
For the molecule B1, the binding entry (in the test with HA-tagged PER1 (mouse); in test [3]) was “binds” each time.
